Common to all, as to assay: log2 fold change, soluble protein after heating vs DMSO (PISA); higher = thermal stabilisation; K562 cells, 10 uM, 30 min; active = over 0.2 and 3.5 SD of the protein, either way, in both replicates (recomputed)
Compound in experiment [1]: C1=CC=C(C=C1)[C@H](COC2=CC3=C(C=C2)NC(=O)N3)NC(=O)C4=CC=CN(C4=O)CC5=CC(=C(C=C5)F)F
The method, boiled down: (§1)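 K562 cells (2×10^6 cells/mL) were treated with 10 μM compound for 30 min, and aliquots were heated for 3 min over 48°C-58°C. Pooled aliquots were extracted in PBS with 0.5% NP-40 at 4°C, and the supernatant after 21,000xg for 90 min was measured by TMTpro 16plex LC-MS/MS with channel sums equalised. Reported thermal stability, relative to control samples and from duplicates, is a log2 fold change.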

The chains behind the UniProt entries cited, without tags or fusion partners. Where a name states a change or a piece, a line headed by the entry shows the natural chain unless it says otherwise.
UniProt Q15800: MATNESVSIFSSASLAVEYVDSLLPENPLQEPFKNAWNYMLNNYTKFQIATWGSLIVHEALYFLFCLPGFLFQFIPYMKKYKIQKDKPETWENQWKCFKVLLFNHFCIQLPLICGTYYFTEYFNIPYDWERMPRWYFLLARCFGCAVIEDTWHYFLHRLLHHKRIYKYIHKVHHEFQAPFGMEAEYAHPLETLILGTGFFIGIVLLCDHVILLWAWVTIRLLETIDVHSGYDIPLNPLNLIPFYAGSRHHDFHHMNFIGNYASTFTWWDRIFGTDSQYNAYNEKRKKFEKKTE
UniProt P03915, whole entry, looked up: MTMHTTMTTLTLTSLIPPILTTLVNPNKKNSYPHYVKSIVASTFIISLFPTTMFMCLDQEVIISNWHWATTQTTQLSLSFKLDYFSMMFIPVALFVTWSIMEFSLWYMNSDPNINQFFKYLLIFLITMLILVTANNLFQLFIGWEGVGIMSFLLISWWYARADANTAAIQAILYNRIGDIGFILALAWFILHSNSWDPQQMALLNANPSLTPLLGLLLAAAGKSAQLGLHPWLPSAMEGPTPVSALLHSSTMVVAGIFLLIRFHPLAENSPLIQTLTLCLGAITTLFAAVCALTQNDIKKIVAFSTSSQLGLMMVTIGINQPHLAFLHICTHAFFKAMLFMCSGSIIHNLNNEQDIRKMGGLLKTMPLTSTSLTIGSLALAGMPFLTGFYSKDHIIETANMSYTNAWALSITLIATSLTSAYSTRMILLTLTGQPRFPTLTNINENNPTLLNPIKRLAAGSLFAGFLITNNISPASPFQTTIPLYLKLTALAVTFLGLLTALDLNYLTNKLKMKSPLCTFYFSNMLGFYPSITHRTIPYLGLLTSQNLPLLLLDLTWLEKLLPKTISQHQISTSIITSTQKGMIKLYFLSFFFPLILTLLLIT
UniProt Q6P444: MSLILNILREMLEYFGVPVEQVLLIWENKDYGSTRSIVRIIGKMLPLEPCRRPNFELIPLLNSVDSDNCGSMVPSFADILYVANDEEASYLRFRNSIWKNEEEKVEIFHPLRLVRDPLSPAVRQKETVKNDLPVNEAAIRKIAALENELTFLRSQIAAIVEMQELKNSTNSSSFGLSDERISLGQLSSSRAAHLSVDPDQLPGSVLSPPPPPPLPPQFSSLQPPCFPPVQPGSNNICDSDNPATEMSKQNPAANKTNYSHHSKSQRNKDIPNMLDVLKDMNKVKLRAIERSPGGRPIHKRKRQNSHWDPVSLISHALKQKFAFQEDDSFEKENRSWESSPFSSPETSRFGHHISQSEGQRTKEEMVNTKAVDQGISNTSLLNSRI
UniProt Q9H019: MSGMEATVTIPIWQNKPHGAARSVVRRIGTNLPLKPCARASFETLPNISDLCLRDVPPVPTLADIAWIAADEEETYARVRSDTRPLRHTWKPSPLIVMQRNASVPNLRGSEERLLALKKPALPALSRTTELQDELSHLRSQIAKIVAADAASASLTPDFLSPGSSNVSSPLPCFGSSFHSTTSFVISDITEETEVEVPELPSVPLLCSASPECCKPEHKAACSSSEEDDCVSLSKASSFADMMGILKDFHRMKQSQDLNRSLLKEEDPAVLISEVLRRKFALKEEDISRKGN
UniProt Q9H6N6: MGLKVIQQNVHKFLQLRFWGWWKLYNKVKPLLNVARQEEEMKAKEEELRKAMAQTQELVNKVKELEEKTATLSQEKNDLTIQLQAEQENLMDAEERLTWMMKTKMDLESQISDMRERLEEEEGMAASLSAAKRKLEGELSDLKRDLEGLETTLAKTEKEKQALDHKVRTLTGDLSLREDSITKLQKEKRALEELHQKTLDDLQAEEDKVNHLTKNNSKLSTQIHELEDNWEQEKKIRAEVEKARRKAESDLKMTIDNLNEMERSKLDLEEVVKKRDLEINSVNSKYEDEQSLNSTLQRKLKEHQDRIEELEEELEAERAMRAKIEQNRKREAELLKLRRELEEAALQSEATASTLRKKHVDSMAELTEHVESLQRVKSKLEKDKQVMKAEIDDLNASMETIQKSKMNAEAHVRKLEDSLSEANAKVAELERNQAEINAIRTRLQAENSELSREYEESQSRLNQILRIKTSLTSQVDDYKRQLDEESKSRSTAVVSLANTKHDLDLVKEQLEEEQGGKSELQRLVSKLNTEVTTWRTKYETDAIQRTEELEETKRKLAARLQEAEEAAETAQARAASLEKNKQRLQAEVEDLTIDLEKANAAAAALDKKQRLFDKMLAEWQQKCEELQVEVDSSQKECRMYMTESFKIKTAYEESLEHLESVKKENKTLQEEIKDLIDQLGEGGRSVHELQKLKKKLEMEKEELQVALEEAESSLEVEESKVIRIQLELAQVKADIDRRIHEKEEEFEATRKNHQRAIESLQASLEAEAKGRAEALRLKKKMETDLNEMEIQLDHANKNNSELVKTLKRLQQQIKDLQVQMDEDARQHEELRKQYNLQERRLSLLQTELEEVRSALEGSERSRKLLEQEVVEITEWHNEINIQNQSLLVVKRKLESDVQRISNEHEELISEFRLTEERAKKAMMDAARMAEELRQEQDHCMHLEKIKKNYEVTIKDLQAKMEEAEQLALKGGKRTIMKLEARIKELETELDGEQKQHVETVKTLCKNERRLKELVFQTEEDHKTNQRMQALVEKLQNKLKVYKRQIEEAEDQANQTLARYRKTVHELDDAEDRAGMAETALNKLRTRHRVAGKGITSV
UniProt Q9BUK6: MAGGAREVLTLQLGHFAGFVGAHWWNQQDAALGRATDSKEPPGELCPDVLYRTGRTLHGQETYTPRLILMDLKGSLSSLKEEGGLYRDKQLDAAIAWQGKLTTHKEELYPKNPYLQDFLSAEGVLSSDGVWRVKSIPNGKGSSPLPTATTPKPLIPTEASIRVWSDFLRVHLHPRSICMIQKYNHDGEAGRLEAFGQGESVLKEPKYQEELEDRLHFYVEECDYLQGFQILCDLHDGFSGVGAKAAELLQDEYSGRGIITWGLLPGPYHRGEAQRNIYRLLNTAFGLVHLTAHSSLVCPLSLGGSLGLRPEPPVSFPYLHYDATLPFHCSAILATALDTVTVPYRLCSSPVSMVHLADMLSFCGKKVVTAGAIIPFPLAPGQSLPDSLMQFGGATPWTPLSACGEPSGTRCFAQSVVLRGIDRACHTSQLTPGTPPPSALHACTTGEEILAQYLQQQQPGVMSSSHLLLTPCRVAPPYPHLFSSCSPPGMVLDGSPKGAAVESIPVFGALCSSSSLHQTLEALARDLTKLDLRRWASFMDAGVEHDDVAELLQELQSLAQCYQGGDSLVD
UniProt P00846: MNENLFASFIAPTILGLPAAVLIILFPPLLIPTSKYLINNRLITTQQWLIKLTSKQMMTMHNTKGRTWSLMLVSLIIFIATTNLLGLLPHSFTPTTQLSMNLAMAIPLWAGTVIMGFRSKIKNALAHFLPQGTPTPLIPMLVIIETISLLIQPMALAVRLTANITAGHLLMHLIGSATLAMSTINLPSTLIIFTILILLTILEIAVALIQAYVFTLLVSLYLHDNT
UniProt Q9C0I1: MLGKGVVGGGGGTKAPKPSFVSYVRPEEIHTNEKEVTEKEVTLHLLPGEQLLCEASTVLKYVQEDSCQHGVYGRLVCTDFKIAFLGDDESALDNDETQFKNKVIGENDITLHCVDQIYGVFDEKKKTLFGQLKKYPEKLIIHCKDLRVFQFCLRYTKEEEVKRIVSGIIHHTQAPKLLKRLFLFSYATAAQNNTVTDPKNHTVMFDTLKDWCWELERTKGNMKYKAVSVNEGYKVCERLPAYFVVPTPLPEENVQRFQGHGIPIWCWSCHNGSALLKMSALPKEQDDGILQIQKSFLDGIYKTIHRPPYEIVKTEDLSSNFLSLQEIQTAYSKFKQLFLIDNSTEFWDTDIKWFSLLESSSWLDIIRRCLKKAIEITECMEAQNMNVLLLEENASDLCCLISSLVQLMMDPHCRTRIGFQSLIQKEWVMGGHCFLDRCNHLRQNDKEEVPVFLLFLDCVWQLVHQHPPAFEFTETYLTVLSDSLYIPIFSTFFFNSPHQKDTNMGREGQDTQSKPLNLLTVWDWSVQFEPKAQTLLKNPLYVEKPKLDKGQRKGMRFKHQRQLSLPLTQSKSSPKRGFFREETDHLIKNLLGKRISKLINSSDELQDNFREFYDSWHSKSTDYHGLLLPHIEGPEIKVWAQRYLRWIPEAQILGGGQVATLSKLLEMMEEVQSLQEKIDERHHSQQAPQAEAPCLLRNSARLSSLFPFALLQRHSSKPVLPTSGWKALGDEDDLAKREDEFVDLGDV
UniProt Q96S97: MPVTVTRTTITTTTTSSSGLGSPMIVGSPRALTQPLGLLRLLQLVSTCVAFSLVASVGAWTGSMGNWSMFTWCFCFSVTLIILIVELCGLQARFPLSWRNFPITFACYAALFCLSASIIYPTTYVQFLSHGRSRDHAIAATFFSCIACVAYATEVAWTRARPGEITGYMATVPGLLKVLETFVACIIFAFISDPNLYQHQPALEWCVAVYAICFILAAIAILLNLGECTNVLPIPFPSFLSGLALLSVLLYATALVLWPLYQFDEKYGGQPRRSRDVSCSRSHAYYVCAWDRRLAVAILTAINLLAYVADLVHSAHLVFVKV
UniProt Q7Z406, whole entry, looked up: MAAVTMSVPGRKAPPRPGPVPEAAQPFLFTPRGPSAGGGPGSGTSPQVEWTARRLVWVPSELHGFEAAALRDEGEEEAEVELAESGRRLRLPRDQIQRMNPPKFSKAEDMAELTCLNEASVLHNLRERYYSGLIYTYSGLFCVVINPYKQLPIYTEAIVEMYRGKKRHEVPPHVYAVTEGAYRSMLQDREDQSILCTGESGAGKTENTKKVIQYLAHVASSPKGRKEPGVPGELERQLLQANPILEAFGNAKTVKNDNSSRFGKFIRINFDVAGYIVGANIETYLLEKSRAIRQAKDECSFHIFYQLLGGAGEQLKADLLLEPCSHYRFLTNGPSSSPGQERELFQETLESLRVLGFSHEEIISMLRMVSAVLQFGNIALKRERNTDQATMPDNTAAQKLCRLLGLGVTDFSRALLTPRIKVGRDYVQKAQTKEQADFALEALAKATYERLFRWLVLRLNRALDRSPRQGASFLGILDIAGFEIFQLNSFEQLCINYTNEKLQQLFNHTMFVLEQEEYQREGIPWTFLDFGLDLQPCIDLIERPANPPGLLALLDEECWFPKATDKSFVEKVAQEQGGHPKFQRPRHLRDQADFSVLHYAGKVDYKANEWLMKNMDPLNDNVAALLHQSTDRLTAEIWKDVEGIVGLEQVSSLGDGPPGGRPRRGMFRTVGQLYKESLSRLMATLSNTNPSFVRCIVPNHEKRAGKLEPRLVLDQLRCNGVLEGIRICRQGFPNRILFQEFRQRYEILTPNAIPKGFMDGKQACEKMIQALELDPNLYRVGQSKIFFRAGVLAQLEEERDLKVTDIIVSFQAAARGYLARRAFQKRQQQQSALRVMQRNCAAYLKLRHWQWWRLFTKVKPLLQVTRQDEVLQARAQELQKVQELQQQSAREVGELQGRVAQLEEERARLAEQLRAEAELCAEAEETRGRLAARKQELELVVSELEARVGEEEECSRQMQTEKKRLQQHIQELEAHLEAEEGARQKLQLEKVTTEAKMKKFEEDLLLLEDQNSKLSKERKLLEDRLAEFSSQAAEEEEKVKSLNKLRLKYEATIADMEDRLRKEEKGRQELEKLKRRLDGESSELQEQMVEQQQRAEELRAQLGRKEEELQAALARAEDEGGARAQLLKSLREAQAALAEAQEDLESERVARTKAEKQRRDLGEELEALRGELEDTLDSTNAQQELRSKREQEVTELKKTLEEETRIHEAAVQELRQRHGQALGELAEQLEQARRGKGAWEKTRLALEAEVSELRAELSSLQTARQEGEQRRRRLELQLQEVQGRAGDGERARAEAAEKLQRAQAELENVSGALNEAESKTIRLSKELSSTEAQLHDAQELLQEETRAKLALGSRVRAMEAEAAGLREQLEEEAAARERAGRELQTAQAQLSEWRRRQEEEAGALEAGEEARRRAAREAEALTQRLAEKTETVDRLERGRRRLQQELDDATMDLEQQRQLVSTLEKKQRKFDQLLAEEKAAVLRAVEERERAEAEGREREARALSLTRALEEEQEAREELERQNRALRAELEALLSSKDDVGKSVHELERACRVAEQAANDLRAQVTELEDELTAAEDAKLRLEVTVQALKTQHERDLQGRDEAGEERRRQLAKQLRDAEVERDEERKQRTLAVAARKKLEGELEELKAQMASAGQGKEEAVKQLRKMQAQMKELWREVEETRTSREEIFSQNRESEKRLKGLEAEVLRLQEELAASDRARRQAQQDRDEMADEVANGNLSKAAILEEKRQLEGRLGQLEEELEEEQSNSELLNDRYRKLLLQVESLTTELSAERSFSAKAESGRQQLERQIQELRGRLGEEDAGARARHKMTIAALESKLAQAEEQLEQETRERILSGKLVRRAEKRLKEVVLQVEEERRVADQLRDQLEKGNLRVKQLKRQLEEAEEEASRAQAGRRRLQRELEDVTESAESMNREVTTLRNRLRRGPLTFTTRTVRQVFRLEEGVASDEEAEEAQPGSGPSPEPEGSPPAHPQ

Compound in experiment [2]: CC1=C(SC2=C1C(=N[C@H](C3=NN=C(N32)C)CC(=O)N)C4=CC=C(C=C4)Cl)C
The method, boiled down: as §1

Compound in experiment [3]: CC1=C2C(=CC=C1)N=C(N(C2=O)C3=CC=CC=C3C)CN4C=NC5=C(N=CN=C54)N
An outline of the steps: as §1

Compound in experiment [4]: Cc1sc2c(c1C)C(c1ccc(Cl)cc1)=N[C@@H](CC(=O)OC(C)(C)C)c1nnc(C)n1-2
An outline of the steps:
as §1

Compound in experiment [5]: c1ccc([C@@H]2C[C@H]2NC2CCNCC2)cc1
The method, boiled down:
as §1

The other results are listed elsewhere or left out.

With MSMO1 (UniProt Q15800), the log2 fold change in experiment [1] is inactive: -0.009; in experiment [2], inactive: -0.004; in experiment [3], inactive: 0.021; in experiment [4], inactive: -0.008; in experiment [5], inactive: 0.02.

Take MRPS10 (UniProt P82664): the log2 fold change was inactive: -0.019 in experiment [1]; inactive: -0.102 in experiment [2]; inactive: 0.065 in experiment [3]; inactive: 0.132 in experiment [4]; inactive: 0.025 in experiment [5].

With MTHFSD isoform 3 (UniProt Q2M296), the log2 fold change is inactive: 0.076 in experiment [1]; inactive: -0.073 in experiment [2]; inactive: -0.07 in experiment [3]; inactive: 0.059 in experiment [4]; inactive: 0.081 in experiment [5].

Take MYL4 (UniProt P12829): the log2 fold change in experiment [1] is inactive: 0.033; in experiment [2], inactive: 0.031; in experiment [3], inactive: 0.037; in experiment [4], inactive: -0.046; in experiment [5], inactive: 0.002.

On to MT-ND5 (UniProt P03915), for which the log2 fold change in experiment [1] is inactive: -0.005; in experiment [2] it was inactive: -0.075; in experiment [3], inactive: -0.072; in experiment [4], inactive: -0.136; in experiment [5] it was inactive: 0.066.

Turning to MRPS18C (UniProt Q9Y3D5), the log2 fold change in experiment [1] was inactive: 0.036; in experiment [2] it was inactive: 0.002; in experiment [3], inactive: 0.066; in experiment [4], inactive: 0.083; in experiment [5], inactive: 0.017.

On to MRPS26 (UniProt Q9BYN8), for which the log2 fold change in experiment [1] was inactive: -0.075; in experiment [2], inactive: 0.061; in experiment [3], inactive: -0.012; in experiment [4], inactive: -0.009; in experiment [5], inactive: 0.013.

For the target MTFR2 (UniProt Q6P444), the log2 fold change in experiment [1] is inactive: 0.006; in experiment [2] it was inactive: -0.03; in experiment [3], inactive: 0.015; in experiment [4], inactive: -0.126; in experiment [5], inactive: 0.064.

With MTFR1L (UniProt Q9H019), the log2 fold change in experiment [1] is inactive: -0.036; in experiment [2], inactive: -0.009; in experiment [3], inactive: 0.066; in experiment [4] it was inactive: 0.048; in experiment [5] it was inactive: 0.028.

As for MYL12B (UniProt O14950), the log2 fold change in experiment [1] was inactive: 0.028; in experiment [2], inactive: 0.054; in experiment [3], inactive: 0.009; in experiment [4] it was inactive: -0.025; in experiment [5], inactive: -0.077.

In the case of MYH16 (UniProt Q9H6N6), the log2 fold change in experiment [1] is inactive: -0.164; in experiment [2], inactive: -0.042; in experiment [3] it was inactive: -0.142; in experiment [4] it was inactive: 0.069; in experiment [5] it was inactive: -0.034.

As to MVK (UniProt Q03426), the log2 fold change in experiment [1] was inactive: -0.015; in experiment [2], inactive: 0.014; in experiment [3], inactive: 0.047; in experiment [4], inactive: -0.006; in experiment [5], inactive: 0.014.

In the case of MT-CO1 (UniProt P00395), the log2 fold change is inactive: 0.024 in experiment [1]; inactive: 0.108 in experiment [2]; inactive: -0.073 in experiment [3]; inactive: -0.179 in experiment [4]; inactive: 0.1 in experiment [5].

As for MRPS11 (UniProt P82912), the log2 fold change in experiment [1] was inactive: 0.044; in experiment [2], inactive: -0.104; in experiment [3] it was inactive: -0.015; in experiment [4], inactive: 0.187; in experiment [5] it was inactive: -0.096.

Regarding MRPS17 (UniProt Q9Y2R5), the log2 fold change is inactive: -0.031 in experiment [1]; inactive: -0.044 in experiment [2]; inactive: -0.011 in experiment [3]; inactive: 0.06 in experiment [4]; inactive: -0.064 in experiment [5].

For MTX2 (UniProt O75431), the log2 fold change in experiment [1] is inactive: 0.04; in experiment [2], inactive: 0.075; in experiment [3] it was inactive: 0.035; in experiment [4] it was inactive: -0.036; in experiment [5], inactive: -0.016.

On to MTX1 (UniProt Q13505), for which the log2 fold change in experiment [1] is inactive: 0.006; in experiment [2], inactive: 0.016; in experiment [3] it was inactive: -0.004; in experiment [4] it was inactive: -0.002; in experiment [5], inactive: -0.035.

In the case of MSTO1 (UniProt Q9BUK6), the log2 fold change is inactive: -0.041 in experiment [1]; inactive: 0.046 in experiment [2]; inactive: 0.002 in experiment [3]; inactive: -0.005 in experiment [4]; inactive: -0.071 in experiment [5].

With MRPS35 (UniProt P82673), the log2 fold change in experiment [1] is inactive: -0.011; in experiment [2] it was inactive: -0.03; in experiment [3], inactive: -0.033; in experiment [4] it was inactive: 0.143; in experiment [5], inactive: -0.004.

As for MT-ATP6 (UniProt P00846), the log2 fold change in experiment [1] was active: -0.828; in experiment [2] it was inactive: -0.065; in experiment [3] it was inactive: 0.076; in experiment [4] it was inactive: -0.223; in experiment [5], inactive: -0.035.

Take MTMR12 (UniProt Q9C0I1): the log2 fold change in experiment [1] is inactive: 0.014; in experiment [2] it was inactive: 0.083; in experiment [3], inactive: 0.046; in experiment [4] it was inactive: 0.006; in experiment [5], inactive: 0.026.

Consider MYADM (UniProt Q96S97), for which the log2 fold change in experiment [1] was inactive: -0.055; in experiment [2], inactive: -0.064; in experiment [3], inactive: 0.059; in experiment [4] it was inactive: -0.07; in experiment [5], inactive: -0.091.

For MT-ND2 (UniProt P03891), the log2 fold change in experiment [1] was inactive: 0.023; in experiment [2], inactive: 0.123; in experiment [3] it was inactive: -0.118; in experiment [4] it was inactive: -0.03; in experiment [5] it was inactive: -0.003.

As for MYH14 isoform 2 (UniProt Q7Z406), the log2 fold change in experiment [1] is inactive: -0.006; in experiment [2], inactive: -0.002; in experiment [3], inactive: -0.021; in experiment [4] it was inactive: 0.004; in experiment [5] it was inactive: 0.01.

The values above are taken from the supplement of paper PMC10849652.
